# In article PMC9935853:
# These are yes or no findings as the source states them, for the method shown. Some binding calls cover weakened binding; strength is not graded here. For some assays here: Tags and fused reporters may be left off the sequences shown.
# T1: S. pombe cytochrome c oxidase subunit Cox3 (S. pombe) (UniProt P14575)
# T1 sequence: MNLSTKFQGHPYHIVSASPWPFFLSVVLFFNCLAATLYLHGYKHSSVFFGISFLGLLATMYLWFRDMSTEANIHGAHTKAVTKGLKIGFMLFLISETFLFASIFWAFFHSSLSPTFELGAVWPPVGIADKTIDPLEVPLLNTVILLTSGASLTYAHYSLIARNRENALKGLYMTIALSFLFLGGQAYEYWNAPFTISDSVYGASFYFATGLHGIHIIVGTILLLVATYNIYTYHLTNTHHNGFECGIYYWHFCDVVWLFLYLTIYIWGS
# T2: S. pombe cytochrome c oxidase subunit Cox5 with a C-terminal twin-strep tag (S. pombe) (UniProt O74988)
# T2 sequence: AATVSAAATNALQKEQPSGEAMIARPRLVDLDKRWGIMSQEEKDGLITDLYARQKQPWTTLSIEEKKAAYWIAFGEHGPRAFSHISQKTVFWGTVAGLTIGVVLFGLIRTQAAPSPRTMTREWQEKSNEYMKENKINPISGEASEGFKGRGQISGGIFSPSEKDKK
# Molecular target: T1, S. pombe cytochrome c oxidase subunit Cox3 (S. pombe)
# Experiment: cryo-EM structure; CIV purified through Cox5-2xstrep in GDN (25 mM KH2PO4 pH 8.0, 150 mM KCl, 0.01% GDN), ~4 mg/ml on grids; map at 3.4 Å overall
row,binding,Binder
1,binds,"respiratory supercomplex factor 2 (Rcf2) of S. pombe (protein, UniProt Q9P3B2 1-242) MKLSTPEEVKAFNRNTYSALFKGALVGSSLGIAGWLIGNRYSAGFRRLPFSLKSWLVIGSGSGASIIFADKAGLKFEAERYGKFDQIDYSTKGLPWNQRALYYFNEHKWPIILGTWASTMGLSLYAASRNRYDTAPQKLIQARMYAQGVTVVVLLGSVYLSTLANRLEPLEREVLVTDPSNPTKLVAFKQRKERYPGELQWEVLVSQDEERLRKLNLPLREPHGSTGPMSTPTPALNSSRSA"

# Molecular target: T2, S. pombe cytochrome c oxidase subunit Cox5 with a C-terminal twin-strep tag (S. pombe)
# Experiment: as above
row,binding,Binder
1,binds,"S. pombe cytochrome c oxidase subunit Cox12 (protein, UniProt O94581 1-86) MSEQEDQEAPKQFTFGTVGFDARFPNTNQTKHCFQSYIDYFRCIKAKGEDFVPCKQFWHAYQSLCPMEWVERWDEQRENGTFPAPI"
2,binds,"S. pombe cytochrome c oxidase subunit Cox13 (protein, UniProt O74471 32-130) SNEAKVNWLEEVQAEEEHAKRSSEFWKKVTYYIGGPALILASANAYYIYCKHQEHAKHVEDTDPGYSFENLRFKKYPWGDGSKTLFWNDKVNHLKKDDE"
3,binds,"SSSHSAPKPGSTIPFYINKKPLPTLLYFGTFGVIFSIPFIVVKYHNRNL (peptide, UniProt Q9P4W1 18-66) [S. pombe cytochrome c oxidase subunit Cox8]"
4,binds,"S. pombe cytochrome c oxidase subunit Cox7 (protein, UniProt G2TRP5 1-59) MKNTIVQQQRFLQSIHKPTYLQRPGSFALVYPYYAVMAGLGLYSLYASGRVIFGKKDAF"
5,binds,"S. pombe cytochrome c oxidase subunit Cox2 (protein, UniProt P21534 1-248) MLFFNSILNDAPSSWALYFQDGASPSYLGITHLNDYLMFYLTFIFIGVIYAICKAVIEYNYNSHPIAAKYTTHGSIVEFIWTLIPALILILVALPSFKLLYLLDEVQKPSMTVKAIGRQWFWSYELNDFVTNENEPVSFDSYMVPEEDLEEGSLRQLEVDNRLVLPIDTRIRLILTSGDVIHSWAVPSLGIKCDCIPGRLNQVSLSIDREGLFYGQCSELCGVLHSSMPIVVQGVSLEDFLAWLEENS"
6,binds,"S. pombe cytochrome c oxidase subunit Cox4 (protein, UniProt P79010 34-164) NEQNVVKAAAQELANAKEPSDLIGPGGRDGEVPTDLEQATGLERYELLSELSGRDAFDMKPLDASRKGTLTDPIMVTSLDPYRHIGCTGSPSGSHNLIWMTVYKDKLRRCPECGSVYKLKFMGDPNAEHSH"
7,binds,"S. pombe cytochrome c oxidase subunit Cox3 (protein, UniProt P14575 1-269) MNLSTKFQGHPYHIVSASPWPFFLSVVLFFNCLAATLYLHGYKHSSVFFGISFLGLLATMYLWFRDMSTEANIHGAHTKAVTKGLKIGFMLFLISETFLFASIFWAFFHSSLSPTFELGAVWPPVGIADKTIDPLEVPLLNTVILLTSGASLTYAHYSLIARNRENALKGLYMTIALSFLFLGGQAYEYWNAPFTISDSVYGASFYFATGLHGIHIIVGTILLLVATYNIYTYHLTNTHHNGFECGIYYWHFCDVVWLFLYLTIYIWGS"
